In PubChem BioAssay AID504467 (National Center for Advancing Translational Sciences (NCATS), 2011):
About 7,700 (2.3%) of roughly 330,000 compounds were called active. Inconclusive results, whose numbers are uncertain, are shown with a selection of clear calls. The call rests on the fitted dose curve; in most records, active means well fitted inhibition curve with a large enough effect; inconclusive means small, poorly fitted or top-dose-only effect, or effect the other way; inactive means flat fitted curve, though single readings scatter. Potencies beside an inconclusive call are fits to weak or partial responses and may not hold up.

Assay: qHTS screen for small molecules that inhibit ELG1-dependent DNA repair in human embryonic kidney (HEK293T) cells expressing luciferase-tagged ELG1; further: nearly all actives have a fitted effect of over 55% in size
Conditions: HEK293T ELG1-luciferase reporter, luminescence, 16 h, DNA damage induced by 5-fluorouridine; activity change, negative = inhibition: at 46.1 µM (top of the series)
Outline: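 Quantitative HTS, concentration-response format. 2,000 cells/well co-treated with 5-fluorouridine and compound, 16 hr in 5% CO2 at 37 °C; ONE-Glo luminescence read after 30 min.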
On the % scale 0 is the no-effect control and ±100 the full control effect; potency means the concentration at half of the fitted maximal effect.

Row | SMILES | Potency | activity change, negative = inhibition
1 | Cc1cccnc1NC(=O)c1ccc(Cl)c(S(=O)(=O)N2CCCCCC2)c1 | inconclusive: 4.11 µM [inhibitor, full curve, poor fit] | 
2 | CCC(CC)C(=O)Nc1nnc(SCC(=O)NC(C)(C)C)s1 |  | inactive: -5.54%
3 | COc1ccc(CN(Cc2cccn2C)S(=O)(=O)c2ccc(F)cc2)cc1 | inconclusive: 29.1 µM [inhibitor, single point] | 
4 | Cc1cc(NC(=O)Nc2ccccc2[N+](=O)[O-])no1 | inconclusive: 29.1 µM [activator, single point] | 
5 | Cc1cc(C(=O)COC(=O)c2ccc(O)cc2)c(C)n1CC1CCCO1 (configuration not stated) | inconclusive: 8.2 µM [activator, partial curve] | 
6 | COc1cc(NC(=O)C2=C(N3CCOCC3)/C(=C/c3ccc(Cl)cc3)CC2)cc(OC)c1OC | active: 16.4 µM | 
7 | [O-][N+]1=c2ccc(Nc3ccccc3)cc2=NC12CCCCC2 | inconclusive: 9.2 µM [inhibitor, partial curve] | 
8 | CCOC(=O)c1cc(CC)sc1/N=C/C1C(=O)CC(C)(C)CC1=O |  | inactive: -1.1%
9 | CO[C@H]1/C=C/O[C@@]2(C)Oc3c(C)c(O)c4c(O)c(c(C=NN5CCN(C)CC5)c(O)c4c3C2=O)NC(=O)/C(C)=C\C=C\[C@H](C)[C@H](O)[C@@H](C)[C@@H](O)[C@@H](C)[C@H](OC(C)=O)[C@@H]1C |  | inactive: -10.7%
10 | C=CC[C@@H](CC(=O)N[C@H](CO)Cc1ccccc1)C(=O)NC[C@@H](OC(=O)[C@@H](CC=C)Cc1ccc(F)cc1)c1ccccc1 |  | inactive: -6.83%
11 | CCc1cc2c(=O)n(Cc3ccco3)c(SCC(=O)NCC3CCCO3)nc2s1 (configuration not stated) | inconclusive: 29.1 µM [inhibitor, single point] | 
12 | Cc1ccc(F)cc1NC(=O)c1ccc(OCC2CCCO2)cc1 (configuration not stated) | inconclusive: 10.3 µM [activator, single point] | 
13 | CN(C)c1ccc(C=Nc2ccc(N(C)C)cc2)cc1 | inconclusive: 2.59 µM [activator, full curve] | 
14 | CCOC(=O)C1=C(C)N(C)C(=S)NC1c1cc(OC)ccc1OC (configuration not stated) |  | inactive: 21.9%
15 | O=C(NCC(=O)N1CCN(C(c2ccccc2)c2ccccc2)CC1)c1ccccc1F | inconclusive: 29.1 µM [inhibitor, single point] | 
16 | Cc1onc(-c2c(Cl)cccc2Cl)c1C(=O)NC1CCCCC1 |  | inactive: -10.5%
17 | Cc1cc(C)cc(OCC(=O)Nc2ccc(N3CCN(C(=O)c4ccco4)CC3)cc2)c1 | inconclusive: 18.4 µM [inhibitor, single point] | 
18 | Cc1nn(-c2ccccc2)c(N2CCCC2)c1C=O | inconclusive: 20.6 µM [inhibitor, partial curve] | 
19 | COc1cc(NC(=O)COC(=O)/C=C/c2c(C)nn(C3CCS(=O)(=O)C3)c2Cl)cc(OC)c1OC (configuration not stated) | inconclusive: 13 µM [inhibitor, partial curve] | 
20 | CS(=O)(=O)c1ccc2nc(NC(=O)CC3CCCC3)sc2c1 | inconclusive: 16.4 µM [inhibitor, partial curve] | 
21 | Cc1ncoc1C(=O)N1CCCC(C(=O)Nc2cccc(-c3ccc(F)cc3)c2)C1 (configuration not stated) |  | inactive: -14.3%

Copied from the list.
For Potency, O=C(NCC(=O)N1CCN(C(c2ccccc2)c2ccccc2)CC1)c1ccccc1F shows inconclusive: 29.1 µM [inhibitor, single point]
For Potency, Cc1cc(NC(=O)Nc2ccccc2[N+](=O)[O-])no1 shows inconclusive: 29.1 µM [activator, single point]

Remaining list, next part:

Row | SMILES | Potency | activity change, negative = inhibition
22 | CCOc1ccc(NS(=O)(=O)c2ccc(NC(=S)NC(=O)CC(C)C)cc2)cc1 | inconclusive: 18.4 µM [inhibitor, single point] | 
23 | CC1(C)CC(=O)c2c(O)cc(OCC(=O)Nc3ccc(CCO)cc3)cc2O1 | inconclusive: 25.9 µM [inhibitor, single point] | 
24 | N#C/C(C(=O)NCCc1ccccc1)=C1/N=C(NC(=O)c2cccs2)c2ccccc21 | inconclusive: 9.2 µM [inhibitor, partial curve, poor fit] | 
25 | CC(C)(C)c1ccc(C(=O)c2c[nH]c(C(=O)NCCCN3CCOCC3)c2)cc1 |  | inactive: 17%
26 | Cc1ccc(-c2nc3ccccc3o2)cc1NC(=O)Cc1cccs1 |  | inactive: 23.7%
27 | CC(=O)c1cccc(NCC(=O)Nc2cccc(S(=O)(=O)N3CCCCC3)c2)c1 | inconclusive: 14.1 µM [inhibitor, single point] | 
28 | O=C(NNC(=O)c1cc2cc3ccccc3nc2s1)c1ccc(F)cc1 | inconclusive: 20.6 µM [activator, single point] | 
29 | CCc1ccc(CN(C)C(=O)c2cc(COc3cccc4cnccc34)on2)cc1 | inconclusive: 2.31 µM [inhibitor, full curve, poor fit] | 
30 | CCc1nc2c(c(=O)c3ccccc3n2C)c(=O)n1-c1ccc(F)cc1 |  | inactive: 0.504%
31 | Cc1ccc(-c2nn(-c3ccccc3)cc2/C=C/C(=O)Nc2nccs2)cc1 | inconclusive: 32.6 µM [activator, partial curve, poor fit] | 
32 | Cc1ccc2[nH]c(=O)c3cc(C(=O)N(C)c4ccc(C)c(C)c4)sc3c2c1 | inconclusive: 7.3 µM [inhibitor, partial curve, poor fit] | 
33 | CC(=O)c1csc(CS(=O)(=O)c2ccccn2)n1 |  | inactive: 0%
34 | Cc1cccc(NC(=S)NCCc2ccc(Cl)cc2)c1C | inconclusive: 29.1 µM [inhibitor, single point] | 
35 | O=C(Nc1cccc(S(=O)(=O)NC2=NCCCCC2)c1)c1cc(-c2ccc(Cl)cc2)nc2ccccc12 | inconclusive: 20.6 µM [inhibitor, partial curve] | 
36 | COc1cccc2cc(C(=O)Nc3ccccc3Cl)/c(=N/NS(=O)(=O)c3ccccc3)oc12 |  | inactive: 1.09%
37 | O=C(c1ccccc1[N+](=O)[O-])N(CCc1ccccc1)Cc1ccccc1 |  | inactive: -9.95%
38 | CCN1C(=O)[C@H]2[C@@H](c3ccc(-c4ccc(OC)cc4)cc3)N[C@@](Cc3ccccc3)(C(=O)OC)[C@H]2C1=O | inconclusive: 14.1 µM [activator, partial curve, poor fit] | 
39 | CCN(Cc1ccccc1)S(=O)(=O)c1cc(C(=O)c2c(N)n(C)c(=O)n(C)c2=O)ccc1OC |  | inactive: -25.9%
40 | Cc1ccccc1Nc1c(N)c(=O)oc2ccccc12 | inconclusive: 9.2 µM [activator, partial curve] | 
41 | CCCCN(C(=O)c1ccc2c(c1)OCO2)c1ccccc1 |  | inactive: -1.04%
42 | CCCCN1C(=O)c2ccc(C(=O)Nc3ccc(C)c(S(=O)(=O)N(C)C)c3)cc2C1=O | inconclusive: 20.6 µM [inhibitor, partial curve] | 
